# Results: the supplement of paper PMC8728848
# The list shows a part of the results.
# Key:
# Test in all cases: glycan array binding signal (z-score within array); higher = stronger binding
# Conditions in all cases: glycan notation: IUPAC condensed, linker removed
# [1] = molecular target: GlcNAc(b1-3)Gal(b1-4)GlcNAc(b1-3)Gal(b1-4)GlcNAc(b1-3)GalNAc
# In short: (§1)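 Columns mapping to the same glycan were averaged after glycan names were converted to IUPAC-condensed notation. The data come from 3228 arrays in the Consortium for Functional Glycomics database, limited to those with an available protein sequence. Binding is reported as a within-array Z-score averaged across arrays of one protein sequence and across linkers.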
# [2] = molecular target: GlcNAc(b1-3)Gal(b1-4)GlcNAc(b1-3)GalNAc
# In short: as §1
# [3] = molecular target: GlcNAc(b1-3)Gal(b1-4)GlcNAc(b1-3)[GlcNAc(b1-3)Gal(b1-4)GlcNAc(b1-3)]GalNAc
# In short: as §1
# [4] = molecular target: GlcNAc(b1-3)Gal(b1-4)GlcNAc(b1-6)[Gal(b1-3)]GalNAc
# In short: as §1
# [5] = molecular target: GlcNAc(b1-3)Gal(b1-4)GlcNAc(b1-6)[GlcNAc(b1-3)Gal(b1-3)]GalNAc
# In short: as §1
# [6] = molecular target: GlcNAc(b1-3)Gal(b1-4)GlcNAc(b1-6)[GlcNAc(b1-3)]Gal(b1-4)GlcNAc
# In short: as §1
# GlcNAc(b1-3)GalNAc = molecular target: GlcNAc(b1-3)GalNAc
# In short: as §1
# GlcNAc(b1-3)Man = molecular target: GlcNAc(b1-3)Man
# In short: as §1
# [7] = molecular target: GlcNAc(b1-3)[GlcNAc(b1-4)][GlcNAc(b1-6)]GlcNAc
# In short: as §1
# [8] = molecular target: GlcNAc(b1-3)[GlcNAc(b1-6)]Gal(b1-4)GlcNAc
# In short: as §1
# [9] = molecular target: GlcNAc(b1-3)[GlcNAc(b1-6)]GalNAc
# In short: as §1
# [10] = molecular target: GlcNAc(b1-4)Gal(b1-4)GlcNAc
# In short: as §1
# GlcNAc(b1-4)GlcNAc = molecular target: GlcNAc(b1-4)GlcNAc
# In short: as §1
# [11] = molecular target: GlcNAc(b1-4)GlcNAc(b1-4)GlcNAc
# In short: as §1
# [12] = molecular target: GlcNAc(b1-4)GlcNAc(b1-4)GlcNAc(b1-4)GlcNAc(b1-4)GlcNAc
# In short: as §1
# [13] = molecular target: GlcNAc(b1-4)GlcNAc(b1-4)GlcNAc(b1-4)GlcNAc(b1-4)GlcNAc(b1-4)GlcNAc
# In short: as §1
# [14] = molecular target: GlcNAc(b1-4)[GlcNAc(b1-6)]GalNAc
# In short: as §1
# [15] = molecular target: GlcNAc(b1-6)Gal(b1-4)GlcNAc
# In short: as §1
# GlcNAc(b1-6)GalNAc = molecular target: GlcNAc(b1-6)GalNAc
# In short: as §1
# [16] = molecular target: GlcNAc6S(b1-3)Gal(b1-4)GlcNAc
# In short: as §1
# Kdn(a2-3)Gal(b1-3)GalNAc = molecular target: Kdn(a2-3)Gal(b1-3)GalNAc
# In short: as §1
# Kdn(a2-3)Gal(b1-3)GlcNAc = molecular target: Kdn(a2-3)Gal(b1-3)GlcNAc
# In short: as §1
# Kdn(a2-3)Gal(b1-4)Glc = molecular target: Kdn(a2-3)Gal(b1-4)Glc
# In short: as §1
# Kdn(a2-3)Gal(b1-4)GlcNAc = molecular target: Kdn(a2-3)Gal(b1-4)GlcNAc
# In short: as §1
# [17] = molecular target: Kdn(a2-3)Gal(b1-4)[Fuc(a1-3)]GlcNAc
# In short: as §1
# Kdn(a2-6)Gal(b1-4)GlcNAc = molecular target: Kdn(a2-6)Gal(b1-4)GlcNAc
# In short: as §1
# [18] = molecular target: Man(a1-2)Man(a1-2)Man(a1-3)Man
# In short: as §1
# [19] = molecular target: Man(a1-2)Man(a1-2)Man(a1-6)[Man(a1-3)]Man
# In short: as §1
# Man(a1-2)Man(a1-3)Man = molecular target: Man(a1-2)Man(a1-3)Man
# In short: as §1
# [20] = molecular target: Man(a1-2)Man(a1-3)[Man(a1-2)Man(a1-6)]Man
# In short: as §1
# [21] = molecular target: Man(a1-2)Man(a1-3)[Man(a1-2)Man(a1-6)]Man(a1-6)[Man(a1-2)Man(a1-2)Man(a1-3)]Man
# In short: as §1
# [22] = molecular target: Man(a1-2)Man(a1-3)[Man(a1-2)Man(a1-6)]Man(a1-6)[Man(a1-2)Man(a1-2)Man(a1-3)]Man(b1-4)GlcNAc(b1-4)GlcNAc
# In short: as §1
# [23] = molecular target: Man(a1-2)Man(a1-3)[Man(a1-6)]Man(a1-6)[Man(a1-2)Man(a1-3)]Man(b1-4)GlcNAc(b1-4)GlcNAc
# In short: as §1
# [24] = molecular target: Man(a1-2)Man(a1-6)[Man(a1-3)]Man(a1-6)[Man(a1-2)Man(a1-2)Man(a1-3)]Man
# In short: as §1
# [25] = molecular target: Man(a1-2)Man(a1-6)[Man(a1-3)]Man(a1-6)[Man(a1-2)Man(a1-2)Man(a1-3)]Man(b1-4)GlcNAc(b1-4)GlcNAc
# In short: as §1
# Man(a1-3)[Man(a1-6)]Man = molecular target: Man(a1-3)[Man(a1-6)]Man
# In short: as §1
# [26] = molecular target: Man(a1-3)[Man(a1-6)]Man(a1-6)[Man(a1-2)Man(a1-3)]Man(b1-4)GlcNAc(b1-4)GlcNAc
# In short: as §1
# [27] = molecular target: Man(a1-3)[Man(a1-6)]Man(a1-6)[Man(a1-3)]Man
# In short: as §1
# [28] = molecular target: Man(a1-3)[Man(a1-6)]Man(a1-6)[Man(a1-3)]Man(b1-4)GlcNAc(b1-4)GlcNAc
# In short: as §1
# [29] = molecular target: Man(a1-3)[Man(a1-6)]Man(b1-4)GlcNAc(b1-4)GlcNAc
# In short: as §1
# [30] = molecular target: Man(a1-3)[Man(a1-6)]Man(b1-4)GlcNAc(b1-4)[Fuc(a1-6)]GlcNAc
# In short: as §1
# Man(a1-6)Man = molecular target: Man(a1-6)Man
# In short: as §1
# Man(b1-4)GlcNAc = molecular target: Man(b1-4)GlcNAc
# In short: as §1
# MurNAc(b1-4)GlcNAc = molecular target: MurNAc(b1-4)GlcNAc
# In short: as §1
# Neu5Ac(a2-3)Gal = molecular target: Neu5Ac(a2-3)Gal
# In short: as §1
binder,measurement,setting,value
FimA-N2 (Actinomyces oris) (protein) MHHHHHHSSGVDLGTENLYFQSNAWIYDVNVYPKNEAIDVDKTIQAQKLNGYGVGSLIKFPVESTAPTLDAKSFYKYFQLKDTLDERLSEVTATDVSLEGTPLQPTDYKVETKQQTVTVTFTAEGLKKIKAAPGKKVSAVFQGKVTKAGNGAITNRAQVISDTLYAEQPPTPETPPTDPENPPTSDEVISRWGDLSIKKVDTHQQGQTKA,glycan array binding signal (z-score),[1],-1.1
same,glycan array binding signal (z-score),[2],-0.701
same,glycan array binding signal (z-score),[3],-0.062
same,glycan array binding signal (z-score),[4],-0.726
same,glycan array binding signal (z-score),[5],-0.947
same,glycan array binding signal (z-score),[6],-0.903
same,glycan array binding signal (z-score),GlcNAc(b1-3)GalNAc,-0.104
same,glycan array binding signal (z-score),GlcNAc(b1-3)Man,-0.206
same,glycan array binding signal (z-score),[7],0.765
same,glycan array binding signal (z-score),[8],-0.712
same,glycan array binding signal (z-score),[9],-0.322
same,glycan array binding signal (z-score),[10],0.652
same,glycan array binding signal (z-score),GlcNAc(b1-4)GlcNAc,0.476
same,glycan array binding signal (z-score),[11],-1.1
same,glycan array binding signal (z-score),[12],0.514
same,glycan array binding signal (z-score),[13],0.47
same,glycan array binding signal (z-score),[14],-0.713
same,glycan array binding signal (z-score),[15],-0.782
same,glycan array binding signal (z-score),GlcNAc(b1-6)GalNAc,-0.16
same,glycan array binding signal (z-score),[16],-0.705
same,glycan array binding signal (z-score),Kdn(a2-3)Gal(b1-3)GalNAc,-0.631
same,glycan array binding signal (z-score),Kdn(a2-3)Gal(b1-3)GlcNAc,-1.43
same,glycan array binding signal (z-score),Kdn(a2-3)Gal(b1-4)Glc,-0.37
same,glycan array binding signal (z-score),Kdn(a2-3)Gal(b1-4)GlcNAc,-1.45
same,glycan array binding signal (z-score),[17],1.21
same,glycan array binding signal (z-score),Kdn(a2-6)Gal(b1-4)GlcNAc,-0.141
same,glycan array binding signal (z-score),[18],-0.447
same,glycan array binding signal (z-score),[19],0.067
same,glycan array binding signal (z-score),Man(a1-2)Man(a1-3)Man,0.075
same,glycan array binding signal (z-score),[20],-1.01
same,glycan array binding signal (z-score),[21],-1.05
same,glycan array binding signal (z-score),[22],0.192
same,glycan array binding signal (z-score),[23],0.741
same,glycan array binding signal (z-score),[24],-1.28
same,glycan array binding signal (z-score),[25],-1.42
same,glycan array binding signal (z-score),Man(a1-3)[Man(a1-6)]Man,0.03
same,glycan array binding signal (z-score),[26],-1.46
same,glycan array binding signal (z-score),[27],-0.183
same,glycan array binding signal (z-score),[28],-0.486
same,glycan array binding signal (z-score),[29],-0.508
same,glycan array binding signal (z-score),[30],-0.081
same,glycan array binding signal (z-score),Man(a1-6)Man,1.37
same,glycan array binding signal (z-score),Man(b1-4)GlcNAc,-0.714
same,glycan array binding signal (z-score),MurNAc(b1-4)GlcNAc,0.202
same,glycan array binding signal (z-score),Neu5Ac(a2-3)Gal,0.301

# Pulled one by one from above (3):
binder,measurement,setting,value
FimA-N2 (Actinomyces oris) (protein) MHHHHHHSSGVDLGTENLYFQSNAWIYDVNVYPKNEAIDVDKTIQAQKLNGYGVGSLIKFPVESTAPTLDAKSFYKYFQLKDTLDERLSEVTATDVSLEGTPLQPTDYKVETKQQTVTVTFTAEGLKKIKAAPGKKVSAVFQGKVTKAGNGAITNRAQVISDTLYAEQPPTPETPPTDPENPPTSDEVISRWGDLSIKKVDTHQQGQTKA,glycan array binding signal (z-score),GlcNAc(b1-3)Man,-0.206
same,glycan array binding signal (z-score),GlcNAc(b1-3)GalNAc,-0.104
same,glycan array binding signal (z-score),[21],-1.05
